Literature values, collected in US11179364B2, “Licofligozin for the treatment of non-alcoholic steatohepatitis” (NOVARTIS AG, priority 2017, dated 2021).
For at least one compound, name, drawing or mass did not settle the structure.

Settings: FLINT trial; cited from earlier work

CC[C@H]1[C@@H](O)[C@@H]2[C@H](CC[C@]3(C)[C@@H]([C@H](C)CCC(=O)O)CC[C@@H]23)[C@@]2(C)CC[C@@H](O)C[C@@H]12 [OCA, obeticholic acid]
placebo-adjusted ALT reduction (net drug effect): 19 U/L
